# Results are given in words; binding and its absence hold for the method and conditions named.
# B1: IgG1 LN01 antibody (antibody, V domains shown)
# VH: EVQLVESGPGLVQPWGTLSLTCRVSGDSVSNDNYYWAWIRQTPGRELQVIGTIYYSGTTYYNPSLRNRVTISLDKSVNVVSLRLGSVSAADTAQYYCVRMPSHGFWSTSFSYWYFDLWGRGHFVAVSW
# VL: DIQMTQSPSSLSASVGDKVTITCRASQSVTKYLNWYQFKTGQAPRILIYGTYTLLSGVSPRFSGAGSGSLYTLTITNIQPEDFATYYCQQAHSTPWTFGQGTHVAAN
# Key:
# [1] = molecular target: 426c-NLGS, 426c gp140 where the N-linked glycosylation sites were removed (HIV-1 clade C strain 426c); assay: ELISA
# [2] = molecular target: 426c core, gp140 where the V loops were removed (HIV-1 clade C strain 426c); assay: ELISA
binder,measurement,setting,value
B1,binding,[1],no binding
same,binding,[2],no binding

# Reference: US20190345234A1 (CENTRE HOSPITALIER UNIVERSITAIRE VAUDOIS, published 2019)
